Experimental data: PubChem BioAssay AID1224830 (NIAID, 2016)
Shown is a random part of about 18,000 reagents. Over the whole deposit, about 2,900 (16%) were called active. 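Calls are made per well; low scores hint the gene aids the LPS response, high scores that it dampens it.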 Repeated entries: four replicate wells of each siRNA pool. Reagent sequences are not shown.

Purpose: 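Host factors that control LPS-induced TNF expression in human macrophages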 (primary screen)
System: human THP-1 monocytic leukaemia cells, TNF dual-luciferase reporter clone, PMA-differentiated to macrophage-like cells
Knock-down reagent: siRNA pool against human genes, 50 nM
Timing: LPS for 4 h, given about 3 days after siRNA transfection
Challenge: bacterial LPS (TLR4 ligand), 10 ng/ml
Read-out: 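Ratio of firefly to renilla light, scaled to the plate median and expressed as a robust z-score per replicate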
Scale: TNF reporter robust z-score: higher = stronger TNF reporter response to LPS
Active means: 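Each well counts as active if its z-score is over 2.8 or under -1.5; controls are left without a call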

gene,TNF reporter robust z-score,outcome
TMEM123 (GeneID 114908),-1.72,active
TMEM123 (GeneID 114908),-0.7,inactive
TMEM123 (GeneID 114908),-0.38,inactive
TMEM123 (GeneID 114908),-0.44,inactive
MRPL28 (GeneID 10573),0.19,inactive
MRPL28 (GeneID 10573),-0.32,inactive
MRPL28 (GeneID 10573),-0.46,inactive
MRPL28 (GeneID 10573),0.17,inactive
SUSD2 (GeneID 56241),-0.28,inactive
SUSD2 (GeneID 56241),-0.95,inactive
SUSD2 (GeneID 56241),0.19,inactive
SUSD2 (GeneID 56241),-0.34,inactive
LUC7L3 (GeneID 51747),0.79,inactive
LUC7L3 (GeneID 51747),-0.76,inactive
LUC7L3 (GeneID 51747),-0.01,inactive
LUC7L3 (GeneID 51747),0.09,inactive
RETREG1 (GeneID 54463),-0.27,inactive
RETREG1 (GeneID 54463),1.65,inactive
RETREG1 (GeneID 54463),1.03,inactive
RETREG1 (GeneID 54463),-1.01,inactive
XAGE2 (GeneID 9502),-0.6,inactive
XAGE2 (GeneID 9502),-0.97,inactive
XAGE2 (GeneID 9502),-0.04,inactive
XAGE2 (GeneID 9502),-0.8,inactive
CYP26B1 (GeneID 56603),-0.4,inactive
CYP26B1 (GeneID 56603),-0.19,inactive
CYP26B1 (GeneID 56603),1.14,inactive
CYP26B1 (GeneID 56603),1.35,inactive
GTF2H3 (GeneID 2967),-0.46,inactive
GTF2H3 (GeneID 2967),-0.15,inactive
GTF2H3 (GeneID 2967),-0.26,inactive
GTF2H3 (GeneID 2967),-0.69,inactive

The list goes on, starting with the last 4 of the part before.
gene,TNF reporter robust z-score,outcome
GTF2H3 (GeneID 2967),-0.46,inactive
GTF2H3 (GeneID 2967),-0.15,inactive
GTF2H3 (GeneID 2967),-0.26,inactive
GTF2H3 (GeneID 2967),-0.69,inactive
SOX6 (GeneID 55553),-0.41,inactive
SOX6 (GeneID 55553),0.18,inactive
SOX6 (GeneID 55553),-0.79,inactive
SOX6 (GeneID 55553),1.53,inactive
UPK2 (GeneID 7379),0.78,inactive
UPK2 (GeneID 7379),1.43,inactive
UPK2 (GeneID 7379),-0.52,inactive
UPK2 (GeneID 7379),-0.74,inactive
RALB (GeneID 5899),-0.53,inactive
RALB (GeneID 5899),0.93,inactive
RALB (GeneID 5899),0.55,inactive
RALB (GeneID 5899),-0.17,inactive
IL2RB (GeneID 3560),-0.54,inactive
IL2RB (GeneID 3560),-1.05,inactive
IL2RB (GeneID 3560),0.23,inactive
IL2RB (GeneID 3560),0.77,inactive
DLGAP4 (GeneID 22839),-1.47,inactive
DLGAP4 (GeneID 22839),-0.97,inactive
DLGAP4 (GeneID 22839),-1.34,inactive
DLGAP4 (GeneID 22839),-1.15,inactive
C3AR1 (GeneID 719),-0.31,inactive
C3AR1 (GeneID 719),-0.64,inactive
C3AR1 (GeneID 719),1.32,inactive
C3AR1 (GeneID 719),2.49,inactive
SPIN2A (GeneID 54466),,inactive
ACADSB (GeneID 36),-1.19,inactive
ACADSB (GeneID 36),-0.97,inactive
ACADSB (GeneID 36),-1.11,inactive
ACADSB (GeneID 36),-0.24,inactive
SPRR1A (GeneID 6698),-0.99,inactive
SPRR1A (GeneID 6698),-1.1,inactive
SPRR1A (GeneID 6698),-0.65,inactive
SPRR1A (GeneID 6698),-0.18,inactive
CST3 (GeneID 1471),0.03,inactive
CST3 (GeneID 1471),0.24,inactive
CST3 (GeneID 1471),2.51,inactive
CST3 (GeneID 1471),1.12,inactive
CLIP4 (GeneID 79745),-0.75,inactive
CLIP4 (GeneID 79745),0.2,inactive
CLIP4 (GeneID 79745),1.74,inactive
CLIP4 (GeneID 79745),0.56,inactive
UTP6 (GeneID 55813),-0.21,inactive
UTP6 (GeneID 55813),0.04,inactive
UTP6 (GeneID 55813),0.34,inactive
UTP6 (GeneID 55813),0.26,inactive
